# Values from PubChem BioAssay AID743454 (Peter MacCallum Cancer Centre, 2014).
# Aim: 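Knock-downs lowering viability or raising caspase 3/7 activity in vorinostat-treated resistant cells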 (primary screen)
# System: human HCT116-VR colon cancer cells, selected for vorinostat resistance
# Reagent: siRNA pool against human genes, 40 nM siRNA pool
# Duration: vorinostat for 24 h, read-out about 72 h after transfection
# Conditions: vorinostat at 2.5 µM final
# Measurement: 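Two measures, CellTiter-Fluor viability and luminescent caspase 3/7 activity, each as fold change against same-plate mock wells, mean of duplicates, then screen-wide robust z-score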
# Scale: viability robust z-score: higher = more viable cells than screen typical; caspase robust z-score: higher = more caspase 3/7 activity than screen typical
# Hit rule: 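a knock-down is a hit when classed RV1 or RV2 for lowered viability, or CA1 or CA2 for caspase activation; those lethal without drug were dropped; hits were retested singly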
# Shown is an unselected part of about 18,000 deposited reagents. In the full data, 450 (2.5%) are marked active. 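Single biological run; no consistent viability z cut-off exists, so the class columns, not z-scores, define the calls.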
gene,viability hit class,caspase hit class,viability robust z-score,caspase robust z-score,call
DUSP7,no change,no change,-0.01,-0.46,inactive
KCNB1,no change,no change,-2.19,0.79,inactive
PRUNE2,no change,no change,-0.87,0.16,inactive
VWA2,no change,no change,-0.02,-0.66,inactive
LRRC37B,no change,no change,0.21,0.4,inactive
ITGA5,no change,no change,0.26,-0.63,inactive
RPRD1B,no change,no change,1.12,-0.25,inactive
GCHFR,no change,no change,-1.43,1.36,inactive
EQTN,no change,no change,0.04,-0.44,inactive
IGFLR1,no change,no change,0.77,0.35,inactive
FMO4,no change,no change,-1.52,1.42,inactive
NDUFS1,no change,no change,-0.55,-0.41,inactive
AJM1,no change,no change,1.19,-0.74,inactive
SCRT2,no change,CA2 (caspase activation),-1.41,5.84,active
MRPS7,no change,no change,1.07,-0.6,inactive
SYPL2,no change,CA2 (caspase activation),-1.25,8.58,active
AS3MT,no change,no change,-1.32,-1.13,inactive
PSMA8,no change,no change,-0.39,-0.66,inactive
TLCD5,no change,no change,-0.46,0.57,inactive
OXLD1,no change,no change,-0.03,-0.72,inactive
ZNF517,no change,no change,0.82,-0.46,inactive
ISCA1P1,no change,no change,0.13,-1.15,inactive
ROBO3,no change,no change,1.15,0.58,inactive
SLC12A8,no change,no change,0.51,-0.84,inactive
CXCL8,no change,no change,-0.02,0.13,inactive
NPY5R,no change,no change,0.26,-1.43,inactive
NDUFAF4,no change,no change,1.02,0.2,inactive
PNPO,no change,no change,1.05,0.32,inactive
CHIC1,no change,no change,-0.93,0.02,inactive
SMPDL3B,no change,no change,0.88,0.82,inactive
FYB1,no change,no change,-1.04,0.52,inactive
CPNE8,no change,no change,0.12,-0.42,inactive
AIM2,no change,no change,-0.39,-0.76,inactive
TANK,no change,no change,1.38,2.48,inactive
UGT1A3,no change,no change,-0.21,1.34,inactive
CFC1,no change,no change,-0.26,-0.3,inactive
MACF1,no change,no change,-1.3,0.57,inactive
UXT,no change,no change,-1.16,0.43,inactive
PDZK1,no change,no change,-0.24,-0.21,inactive
FBXL19,no change,no change,-1,0.7,inactive
MATN3,no change,no change,-0.1,-0.58,inactive
KCNG3,no change,no change,1.68,-0.72,inactive
H2BW1,no change,no change,-0.74,-0.68,inactive
RNF167,no change,CA1 (caspase activation),-0.98,11.2,active
KCNMB3,no change,CA2 (caspase activation),-2.74,5.41,active
KLHL5,no change,no change,-0.22,-0.6,inactive
PEX2,no change,no change,-0.9,1.47,inactive
NPC1L1,no change,CA1 (caspase activation),-1.51,5.8,active
DEFB105B,no change,no change,-1.94,1,inactive
RD3,no change,no change,-0.9,-0.74,inactive
SMYD5,no change,no change,-0.15,-1,inactive
SEPTIN3,no change,no change,0.23,-0.07,inactive
EDNRB,no change,no change,-0.88,2.64,inactive
SLC25A14,no change,no change,-1.98,1.1,inactive
PLIN2,no change,no change,-0.12,1.84,inactive
SP4,no change,no change,-0.65,-0.36,inactive
SMIM12,no change,no change,1.81,-0.54,inactive
H2BC5,no change,no change,-0.96,-0.85,inactive
ANKS4B,no change,no change,-0.06,-1.06,inactive
OR5H15,no change,no change,0.4,0.12,inactive
BPIFB2,no change,no change,0.82,0.86,inactive
MYL6,no change,no change,-0.36,-0.26,inactive
AMFR,no change,no change,0.32,5.12,inactive
TOX4,no change,CA1 (caspase activation),0.34,7.19,active
RDH12,no change,no change,-0.18,-0.44,inactive
DEFB112,no change,no change,-0.43,0.66,inactive
RNF133,no change,no change,-0.05,-0.12,inactive
SPANXN1,no change,no change,0.63,-0.46,inactive
GPR108,no change,no change,-0.05,1.18,inactive
OR10J5,no change,no change,0.64,-0.38,inactive
UNC50,no change,no change,0.58,-1.08,inactive
ZNF697,no change,no change,0.98,-0.77,inactive
OR7D2,no change,no change,0.66,0.01,inactive

No new results follow: 12 of the entries above.
gene,viability hit class,caspase hit class,viability robust z-score,caspase robust z-score,call
RPRD1B,no change,no change,1.12,-0.25,inactive
GCHFR,no change,no change,-1.43,1.36,inactive
EQTN,no change,no change,0.04,-0.44,inactive
IGFLR1,no change,no change,0.77,0.35,inactive
FMO4,no change,no change,-1.52,1.42,inactive
NDUFS1,no change,no change,-0.55,-0.41,inactive
AJM1,no change,no change,1.19,-0.74,inactive
SCRT2,no change,CA2 (caspase activation),-1.41,5.84,active
MRPS7,no change,no change,1.07,-0.6,inactive
SYPL2,no change,CA2 (caspase activation),-1.25,8.58,active
AS3MT,no change,no change,-1.32,-1.13,inactive
PSMA8,no change,no change,-0.39,-0.66,inactive
